Laboratory results reported in US9688638B2, “Opioid agonists and uses thereof” (priority 2013, dated 2017).
At least one read-out could not be matched to a standard name with certainty.

System: Swiss Albino or CD-1 male mice
Test: Acetic acid writhing (AAW) analgesic assay
Type: in vivo
Description: Approaches for evaluating analgesic activity of a compound of the present invention in vivo include a “writhing test.” Briefly, the compound to be tested is administered [by, for example, injection (e.g., subcutaneous injection)] to the mouse. Thereafter, a 0.5% acetic acid solution is administered (i.p.) to a mouse and the numbers of writhing responses are counted for twenty minutes. Antinociception is quantified as reduction in the number of writhes respective to vehicle.
An analgesic assay was used to determine whether a given compound can reduce and/or prevent visceral pain in mice. The assay utilizes Swiss Albino or CD-1 male mice (5-10 mice per group), each mouse being approximately 0.015-0.030 kg on the study day. Mice were treated according to standard protocols.
The animal was given an intraperitoneal (IP) injection of an irritant (acetic acid) that induces “writhing” which may include: contractions of the abdomen, twisting and turning of the trunk, arching of the back and the extension of the hindlimbs. Mice are given a single IP injection (0.1 mL/10 g bodyweight) of a 0.5% acetic acid solution. After the injection the animals were returned to their observation enclosure and their behavior was observed. Contractions were counted between 0 and 20 minutes after the injection. The animals were used once. In certain instances, the test articles were administered at multiple doses to determine a dose response curve.
Table 4 provides the results for certain compounds of the present invention that were administered subcutaneously. Table 5 provides the results for certain compounds of the present invention that were administered orally.

Row | SMILES | AAW % Efficacy (subcutaneous, 3 mg/kg) [%] | AAW % Efficacy (oral, 10 mg/kg) [%]
1 | COCCOCCOCCOCCOCCOc1ccc(Nc2ccc3c(c2)[C@]2(C)CCN(CC4CC4)[C@H](C3=O)[C@@H]2C)cc1 [Compound 9, (2S,6R,11R)-8-((4-(2,5,8,11,14-pentaoxahexadecan-16-yloxy)phenyl)amino)-3-(cyclopropylmethyl)-6,11-dimethyl-3,4,5,6-tetrahydro-2,6-methanobenzo[d]azocin-1(2H)-one] | 61.4 | 
2 | COCCOCCOCCOCCOCCNc1cccc(Nc2ccc3c(c2)[C@]2(C)CCN(CC4CC4)[C@H](C3=O)[C@@H]2C)c1 [Compound 11, (2S,6R,11R)-8-((3-(2,5,8,11,14-pentaoxahexadecan-16-ylamino)phenyl)amino)-3-(cyclopropylmethyl)-6,11-dimethyl-3,4,5,6-tetrahydro-2,6-methanobenzo[d]azocin-1(2H)-one] | 64.3 | 
3 | COCCOCCOCCOCCOCCNc1ccc(Nc2ccc3c(c2)[C@]2(C)CCN(CC4CC4)[C@H](C3=O)[C@@H]2C)cc1 [Compound 12, (2S,6R,11R)-8-((4-(2,5,8,11,14-pentaoxahexadecan-16-ylamino)phenyl)amino)-3-(cyclopropylmethyl)-6,11-dimethyl-3,4,5,6-tetrahydro-2,6-methanobenzo[d]azocin-1(2H)-one] |  | 90.2
